This note sets out measurements from US11857601B2, “Pharmaceutical composition for cancer treatment comprising fusion protein including IL-2 protein and CD80 protein and anticancer drug” (GI INNOVATION, INC., priority 2020, dated 2024).

One assay has as its system CT26 cells. The experiment in a line: mGI-101 and Axitinib in CT26 allotransplanted tumor model.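 Note: subcutaneous CT26 syngeneic tumors in male BALB/c mice, dosing started once tumors were near 50 mm^3, drugs given orally or intraperitoneally for up to 3 weeks.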 The settings on record: mGI-101 3 mg/kg IP, Axitinib 30 mg/kg PO.
For a further assay, the system named is LL/2 cell line. The experiment in a line: mGI-101 and Axitinib in LL/2 allotransplanted tumor model. Type of assay: in vivo, C57BL/6 mice. The settings on record: mGI-101 3 mg/kg IP, Axitinib 30 mg/kg PO.

For `CNC(=O)c1ccccc1Sc1ccc2c(/C=C/c3ccccn3)n[nH]c2c1` [Axitinib, reference compound], the Tumor growth inhibition with CT26 cells (Day 5, mean ± SD) was found to be 32.19 ± 18.64%; with CT26 cells (Day 7, mean ± SD), 28.62 ± 24.35%; in the assay on CT26 cells (Day 9, mean ± SD), 25.81 ± 27.77%; in the assay with CT26 cells (Day 12, mean ± SD), 35.92 ± 27.44%; in the assay with CT26 cells (Day 14, mean ± SD), 46.82 ± 25.79 %; with CT26 cells (Day 16, mean ± SD) it was 44.37 ± 28.66 %. Also, the Tumor growth inhibition is recorded as 46.04 ± 31.96 % in the assay on CT26 cells (Day 19, mean ± SD); 45.45 ± 37.30 % in the assay on CT26 cells (Day 21, mean ± SD); 18.79 ± 28.38% in the assay on LL/2 cell line (Day 2, mean ± SD); 2.10 ± 36.27% in the assay with LL/2 cell line (Day 5, mean ± SD); 24.30 ± 23.63% with LL/2 cell line (Day 7, mean ± SD); 28.19 ± 23.46% with LL/2 cell line (Day 9, mean ± SD). Further, the Tumor growth inhibition in the assay on LL/2 cell line (Day 12, mean ± SD) is reported as 22.90 ± 23.42%; in the assay on LL/2 cell line (Day 14, mean ± SD), 21.82 ± 24.12%; in the assay with LL/2 cell line (Day 16, mean ± SD) it was 20.58 ± 21.15 (9) %; in the assay with LL/2 cell line (Day 19, mean ± SD), 16.55 ± 23.06 (9) %; in the assay with LL/2 cell line (Day 21, mean ± SD), 20.08 ± 20.18 (9) %.
